Laboratory results from the supplement of paper PMC12819154, “High-throughput peptide-centric local stability assay extends protein–ligand identification to membrane proteins, tissues and bacteria” (Nature Structural & Molecular Biology, 2025).
The list shows a part of the results. Most entries show no effect beyond the scatter of the controls.

Sequences of proteins named here, by UniProt entry; tags and fusion partners are left off. A change or cut given only in a name is not applied to a line headed by its entry.
UniProt Q99JF5: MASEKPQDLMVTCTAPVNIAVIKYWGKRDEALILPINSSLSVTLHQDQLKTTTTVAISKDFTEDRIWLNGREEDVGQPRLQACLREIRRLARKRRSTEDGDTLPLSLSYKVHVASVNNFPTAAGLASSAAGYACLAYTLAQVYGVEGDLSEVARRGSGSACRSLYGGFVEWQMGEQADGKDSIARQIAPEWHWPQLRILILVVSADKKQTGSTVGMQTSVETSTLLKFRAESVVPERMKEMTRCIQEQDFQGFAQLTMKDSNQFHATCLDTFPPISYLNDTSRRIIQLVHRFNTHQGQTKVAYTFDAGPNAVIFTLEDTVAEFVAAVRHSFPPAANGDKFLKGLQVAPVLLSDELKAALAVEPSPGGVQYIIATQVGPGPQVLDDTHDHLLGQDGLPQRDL
UniProt Q9CR37: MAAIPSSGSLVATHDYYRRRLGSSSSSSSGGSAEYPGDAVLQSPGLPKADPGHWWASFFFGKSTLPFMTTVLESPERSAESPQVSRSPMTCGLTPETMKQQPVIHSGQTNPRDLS
UniProt Q9CQX2: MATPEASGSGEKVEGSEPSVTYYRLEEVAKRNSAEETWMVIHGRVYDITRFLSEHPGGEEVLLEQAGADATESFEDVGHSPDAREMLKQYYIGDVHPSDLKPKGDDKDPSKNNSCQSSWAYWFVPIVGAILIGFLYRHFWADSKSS
UniProt Q99KN9: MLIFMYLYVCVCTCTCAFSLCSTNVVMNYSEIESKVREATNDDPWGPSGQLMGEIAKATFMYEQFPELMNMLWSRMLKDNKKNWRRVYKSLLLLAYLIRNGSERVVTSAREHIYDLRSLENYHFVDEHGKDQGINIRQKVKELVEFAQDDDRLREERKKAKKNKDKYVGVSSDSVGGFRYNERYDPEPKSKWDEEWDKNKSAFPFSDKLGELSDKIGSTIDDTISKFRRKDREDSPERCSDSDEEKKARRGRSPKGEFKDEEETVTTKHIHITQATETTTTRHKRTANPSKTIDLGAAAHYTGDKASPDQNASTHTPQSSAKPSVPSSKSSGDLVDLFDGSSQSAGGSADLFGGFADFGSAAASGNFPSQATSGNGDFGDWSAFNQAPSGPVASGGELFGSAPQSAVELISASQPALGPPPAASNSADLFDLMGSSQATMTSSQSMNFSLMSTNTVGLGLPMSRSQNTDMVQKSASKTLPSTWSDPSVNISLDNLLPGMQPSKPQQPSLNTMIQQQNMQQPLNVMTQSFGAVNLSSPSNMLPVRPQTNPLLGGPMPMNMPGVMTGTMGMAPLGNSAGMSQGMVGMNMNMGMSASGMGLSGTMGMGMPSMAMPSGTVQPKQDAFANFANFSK
UniProt Q9CQX5: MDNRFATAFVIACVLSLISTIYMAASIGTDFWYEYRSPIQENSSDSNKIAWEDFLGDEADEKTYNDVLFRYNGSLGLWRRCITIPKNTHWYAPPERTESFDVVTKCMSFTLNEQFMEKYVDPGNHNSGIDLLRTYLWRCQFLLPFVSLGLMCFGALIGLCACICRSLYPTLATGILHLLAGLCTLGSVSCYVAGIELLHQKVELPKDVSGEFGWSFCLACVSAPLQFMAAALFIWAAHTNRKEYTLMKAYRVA
UniProt Q99MZ3: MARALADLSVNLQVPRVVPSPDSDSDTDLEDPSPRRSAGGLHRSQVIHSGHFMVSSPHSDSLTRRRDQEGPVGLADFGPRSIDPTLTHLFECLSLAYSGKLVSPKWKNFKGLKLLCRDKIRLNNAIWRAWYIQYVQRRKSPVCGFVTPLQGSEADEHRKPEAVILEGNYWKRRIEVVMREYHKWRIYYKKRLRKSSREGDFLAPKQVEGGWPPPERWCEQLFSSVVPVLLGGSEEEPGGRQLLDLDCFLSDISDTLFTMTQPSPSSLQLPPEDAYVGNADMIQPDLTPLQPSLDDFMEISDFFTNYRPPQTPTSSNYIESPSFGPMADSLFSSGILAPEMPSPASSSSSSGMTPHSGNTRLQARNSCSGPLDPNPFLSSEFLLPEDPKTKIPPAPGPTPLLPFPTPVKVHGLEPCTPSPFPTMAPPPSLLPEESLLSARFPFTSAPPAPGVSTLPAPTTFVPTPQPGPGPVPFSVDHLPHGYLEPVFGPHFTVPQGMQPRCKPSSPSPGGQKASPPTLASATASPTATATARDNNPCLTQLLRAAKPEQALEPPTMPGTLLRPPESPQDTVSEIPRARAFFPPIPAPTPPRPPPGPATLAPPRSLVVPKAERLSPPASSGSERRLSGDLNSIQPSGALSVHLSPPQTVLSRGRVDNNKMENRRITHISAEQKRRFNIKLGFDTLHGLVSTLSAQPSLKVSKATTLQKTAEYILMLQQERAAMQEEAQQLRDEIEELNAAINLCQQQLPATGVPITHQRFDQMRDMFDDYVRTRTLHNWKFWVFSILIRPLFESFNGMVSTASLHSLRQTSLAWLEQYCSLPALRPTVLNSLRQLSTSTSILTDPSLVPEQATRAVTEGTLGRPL
UniProt Q99LI2: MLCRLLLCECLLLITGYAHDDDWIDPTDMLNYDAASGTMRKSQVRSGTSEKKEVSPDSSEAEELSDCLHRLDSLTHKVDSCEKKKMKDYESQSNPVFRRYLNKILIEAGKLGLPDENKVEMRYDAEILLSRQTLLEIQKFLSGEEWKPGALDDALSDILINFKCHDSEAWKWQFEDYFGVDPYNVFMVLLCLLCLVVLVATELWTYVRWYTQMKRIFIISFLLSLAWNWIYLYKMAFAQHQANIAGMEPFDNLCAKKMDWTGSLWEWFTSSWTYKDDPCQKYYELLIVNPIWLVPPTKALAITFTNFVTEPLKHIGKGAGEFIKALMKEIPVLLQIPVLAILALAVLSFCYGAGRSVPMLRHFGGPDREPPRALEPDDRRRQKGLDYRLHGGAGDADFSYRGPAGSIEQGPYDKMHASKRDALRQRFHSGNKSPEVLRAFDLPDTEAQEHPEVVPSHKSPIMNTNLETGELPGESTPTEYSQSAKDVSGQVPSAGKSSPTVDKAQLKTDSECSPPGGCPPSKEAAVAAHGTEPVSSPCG
UniProt Q99JY8: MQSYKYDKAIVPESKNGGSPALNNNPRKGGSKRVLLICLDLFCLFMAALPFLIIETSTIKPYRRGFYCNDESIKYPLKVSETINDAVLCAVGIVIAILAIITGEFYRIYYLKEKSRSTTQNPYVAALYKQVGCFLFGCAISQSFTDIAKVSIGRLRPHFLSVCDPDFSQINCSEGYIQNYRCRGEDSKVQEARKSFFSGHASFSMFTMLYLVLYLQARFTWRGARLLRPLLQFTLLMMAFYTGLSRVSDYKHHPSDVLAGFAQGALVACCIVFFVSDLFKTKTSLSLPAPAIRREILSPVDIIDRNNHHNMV
UniProt Q99L43: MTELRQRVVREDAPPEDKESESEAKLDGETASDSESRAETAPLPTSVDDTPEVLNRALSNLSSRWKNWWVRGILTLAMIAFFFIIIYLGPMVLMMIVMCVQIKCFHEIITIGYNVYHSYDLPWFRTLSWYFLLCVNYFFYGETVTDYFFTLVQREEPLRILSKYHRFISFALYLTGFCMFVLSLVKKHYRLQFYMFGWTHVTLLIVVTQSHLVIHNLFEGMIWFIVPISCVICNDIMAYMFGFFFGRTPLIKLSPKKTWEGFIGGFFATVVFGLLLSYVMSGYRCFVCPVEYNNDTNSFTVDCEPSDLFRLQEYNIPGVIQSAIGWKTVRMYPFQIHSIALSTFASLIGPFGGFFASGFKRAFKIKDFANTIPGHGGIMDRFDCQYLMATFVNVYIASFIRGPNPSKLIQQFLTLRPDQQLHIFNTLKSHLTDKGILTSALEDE
UniProt Q9CWX2: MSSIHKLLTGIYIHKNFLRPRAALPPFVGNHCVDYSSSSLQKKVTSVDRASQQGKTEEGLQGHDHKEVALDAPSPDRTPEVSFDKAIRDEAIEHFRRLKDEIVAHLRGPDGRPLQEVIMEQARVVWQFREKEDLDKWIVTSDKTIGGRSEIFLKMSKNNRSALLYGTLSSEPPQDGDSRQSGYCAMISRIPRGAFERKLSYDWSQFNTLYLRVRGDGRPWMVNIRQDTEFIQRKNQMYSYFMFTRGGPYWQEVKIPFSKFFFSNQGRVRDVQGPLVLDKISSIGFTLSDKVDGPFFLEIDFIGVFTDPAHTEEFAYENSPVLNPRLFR
UniProt Q99KJ8, whole entry: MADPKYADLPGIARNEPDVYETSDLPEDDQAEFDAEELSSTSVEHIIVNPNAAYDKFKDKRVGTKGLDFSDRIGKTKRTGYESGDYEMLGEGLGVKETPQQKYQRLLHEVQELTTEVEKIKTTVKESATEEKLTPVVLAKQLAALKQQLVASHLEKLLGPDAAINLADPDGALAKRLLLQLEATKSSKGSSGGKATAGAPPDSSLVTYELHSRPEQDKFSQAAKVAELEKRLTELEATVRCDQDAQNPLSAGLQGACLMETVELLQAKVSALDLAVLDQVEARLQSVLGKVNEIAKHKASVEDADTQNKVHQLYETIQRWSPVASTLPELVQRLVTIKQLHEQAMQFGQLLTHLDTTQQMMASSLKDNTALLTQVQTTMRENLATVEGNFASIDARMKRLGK
UniProt Q9CX80: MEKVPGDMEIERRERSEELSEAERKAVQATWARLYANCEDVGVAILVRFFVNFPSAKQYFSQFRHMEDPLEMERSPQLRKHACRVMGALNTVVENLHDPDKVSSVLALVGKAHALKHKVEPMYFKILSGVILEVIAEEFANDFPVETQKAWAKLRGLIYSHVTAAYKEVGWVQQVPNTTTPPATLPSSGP
UniProt Q99MR1: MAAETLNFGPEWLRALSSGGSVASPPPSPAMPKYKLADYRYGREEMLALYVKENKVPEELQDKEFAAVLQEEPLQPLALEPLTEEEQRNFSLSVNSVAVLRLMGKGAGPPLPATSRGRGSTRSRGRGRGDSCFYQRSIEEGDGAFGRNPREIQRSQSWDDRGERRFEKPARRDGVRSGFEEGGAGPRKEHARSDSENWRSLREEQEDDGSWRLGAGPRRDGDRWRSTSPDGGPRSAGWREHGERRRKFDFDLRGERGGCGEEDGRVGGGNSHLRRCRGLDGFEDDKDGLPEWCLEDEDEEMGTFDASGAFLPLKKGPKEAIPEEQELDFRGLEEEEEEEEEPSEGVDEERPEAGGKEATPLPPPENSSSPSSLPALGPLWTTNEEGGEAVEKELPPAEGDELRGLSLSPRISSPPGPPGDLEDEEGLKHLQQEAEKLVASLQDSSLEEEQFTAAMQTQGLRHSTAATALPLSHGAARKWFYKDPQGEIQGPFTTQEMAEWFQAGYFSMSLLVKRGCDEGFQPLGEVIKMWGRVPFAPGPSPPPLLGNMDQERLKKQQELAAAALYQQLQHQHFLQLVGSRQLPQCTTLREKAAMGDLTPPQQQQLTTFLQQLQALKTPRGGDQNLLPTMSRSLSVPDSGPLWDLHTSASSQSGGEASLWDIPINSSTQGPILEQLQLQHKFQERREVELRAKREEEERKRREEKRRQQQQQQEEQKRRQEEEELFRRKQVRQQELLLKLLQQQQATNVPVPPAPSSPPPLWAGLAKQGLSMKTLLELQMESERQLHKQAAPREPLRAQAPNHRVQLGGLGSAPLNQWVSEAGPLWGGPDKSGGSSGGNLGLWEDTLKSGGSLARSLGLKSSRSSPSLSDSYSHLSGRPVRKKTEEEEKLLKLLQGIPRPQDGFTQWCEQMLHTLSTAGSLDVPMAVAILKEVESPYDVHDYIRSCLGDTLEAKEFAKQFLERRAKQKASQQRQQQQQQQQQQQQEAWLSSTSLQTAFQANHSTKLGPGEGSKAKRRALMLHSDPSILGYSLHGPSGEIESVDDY
UniProt Q99P30: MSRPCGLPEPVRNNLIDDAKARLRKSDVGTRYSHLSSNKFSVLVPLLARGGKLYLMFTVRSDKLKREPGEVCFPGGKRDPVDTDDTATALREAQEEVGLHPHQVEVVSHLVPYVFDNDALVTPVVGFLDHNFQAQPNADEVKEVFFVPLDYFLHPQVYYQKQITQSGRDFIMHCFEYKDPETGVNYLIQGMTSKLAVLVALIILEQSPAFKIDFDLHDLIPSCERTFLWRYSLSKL
UniProt Q9CRD2: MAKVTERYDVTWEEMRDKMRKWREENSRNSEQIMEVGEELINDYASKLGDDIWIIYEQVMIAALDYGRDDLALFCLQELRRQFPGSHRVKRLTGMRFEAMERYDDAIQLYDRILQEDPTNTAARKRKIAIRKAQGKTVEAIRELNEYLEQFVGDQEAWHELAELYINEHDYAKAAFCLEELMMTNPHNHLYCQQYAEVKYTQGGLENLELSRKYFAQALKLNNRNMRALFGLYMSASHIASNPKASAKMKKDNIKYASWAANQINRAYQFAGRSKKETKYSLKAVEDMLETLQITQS
UniProt Q99JX4, whole entry: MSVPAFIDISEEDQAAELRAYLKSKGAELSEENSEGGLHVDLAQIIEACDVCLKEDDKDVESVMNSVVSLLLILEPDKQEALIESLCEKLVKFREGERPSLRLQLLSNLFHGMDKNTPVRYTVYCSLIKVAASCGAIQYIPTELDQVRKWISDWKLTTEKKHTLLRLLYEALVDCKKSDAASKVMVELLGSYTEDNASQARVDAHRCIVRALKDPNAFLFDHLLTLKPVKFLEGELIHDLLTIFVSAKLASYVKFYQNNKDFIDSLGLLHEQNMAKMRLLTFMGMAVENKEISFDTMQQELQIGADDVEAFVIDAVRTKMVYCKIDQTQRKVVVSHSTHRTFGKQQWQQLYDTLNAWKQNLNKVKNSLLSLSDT

What follows are targets tested with CN[C@@H]1C[C@H]2O[C@@](C)([C@@H]1OC)n1c3ccccc3c3c4c(c5c6ccccc6n2c5c31)C(=O)NC4 [staurosporine] (assay: log2 fold change of pooled soluble protein (PISA), ligand vs vehicle (log2 ratio); higher = more thermally stabilized). Details: ligand concentration: 20 uM; assay format: PISA pool 52.9/55.5/58.6 C.

Row | Target | log2 fold change of pooled soluble protein
1 | UniProt Q99JF5 | 0.101
2 | UniProt Q9CR37 | -0.313
3 | UniProt Q9CQX2 | 0.146
4 | UniProt Q9CX00 | -0.0547
5 | UniProt Q99KN9 | 0.1
6 | UniProt Q9CQX5 | 0.00753
7 | UniProt Q99M04 | 0.0886
8 | UniProt Q99MZ3 | -0.0927
9 | UniProt Q9CWZ7 | -0.0238
10 | UniProt Q9CR51 | 0.226
11 | UniProt Q9CX86 | 0.266
12 | UniProt Q9CW42 | 0.293
13 | UniProt Q99LI2 | -0.0409
14 | UniProt Q9CQE5 | -0.0763
15 | UniProt Q9CX34 | -0.294
16 | UniProt Q99JY8 | 0.0198
17 | UniProt Q99L47 | -0.0385
18 | UniProt Q99L43 | 0.0939

Row | Target | log2 fold change of pooled soluble protein
19 | UniProt Q99KG3 | -0.0105
20 | UniProt Q9CPV4 | -0.0533
21 | UniProt Q9CWX2 | 0.0669
22 | UniProt Q9CRA7 | -0.146
23 | UniProt Q99KJ8 | -0.032
24 | UniProt Q99M07 | -0.039
25 | UniProt Q9CX80 | -0.0604
26 | UniProt Q9CWW6 | -0.0587
27 | UniProt Q99MR1 | -0.114
28 | UniProt Q99M87 | -0.292
29 | UniProt Q9CQW9 | -0.399
30 | UniProt Q99P30 | 0.0921
31 | UniProt Q9CRD2 | -0.0148
32 | UniProt Q9CQV4 | -0.118
33 | UniProt Q99JX4 | -0.135
34 | UniProt Q9CQN6 | -0.121
35 | UniProt Q9CR09 | -0.0221
36 | UniProt Q9CQ60 | -0.085

Some of the entries so far, as comma-separated lines:
Row,Target,log2 fold change of pooled soluble protein
19,UniProt Q99KG3,-0.0105
20,UniProt Q9CPV4,-0.0533
21,UniProt Q9CWX2,0.0669
22,UniProt Q9CRA7,-0.146
23,UniProt Q99KJ8,-0.032
24,UniProt Q99M07,-0.039
25,UniProt Q9CX80,-0.0604
